Results on three substances are retold here after article doi:10.1101/089201.

Chains of the proteins cited; added tags and fusions are not shown.
UniProt Q80TZ9, whole entry: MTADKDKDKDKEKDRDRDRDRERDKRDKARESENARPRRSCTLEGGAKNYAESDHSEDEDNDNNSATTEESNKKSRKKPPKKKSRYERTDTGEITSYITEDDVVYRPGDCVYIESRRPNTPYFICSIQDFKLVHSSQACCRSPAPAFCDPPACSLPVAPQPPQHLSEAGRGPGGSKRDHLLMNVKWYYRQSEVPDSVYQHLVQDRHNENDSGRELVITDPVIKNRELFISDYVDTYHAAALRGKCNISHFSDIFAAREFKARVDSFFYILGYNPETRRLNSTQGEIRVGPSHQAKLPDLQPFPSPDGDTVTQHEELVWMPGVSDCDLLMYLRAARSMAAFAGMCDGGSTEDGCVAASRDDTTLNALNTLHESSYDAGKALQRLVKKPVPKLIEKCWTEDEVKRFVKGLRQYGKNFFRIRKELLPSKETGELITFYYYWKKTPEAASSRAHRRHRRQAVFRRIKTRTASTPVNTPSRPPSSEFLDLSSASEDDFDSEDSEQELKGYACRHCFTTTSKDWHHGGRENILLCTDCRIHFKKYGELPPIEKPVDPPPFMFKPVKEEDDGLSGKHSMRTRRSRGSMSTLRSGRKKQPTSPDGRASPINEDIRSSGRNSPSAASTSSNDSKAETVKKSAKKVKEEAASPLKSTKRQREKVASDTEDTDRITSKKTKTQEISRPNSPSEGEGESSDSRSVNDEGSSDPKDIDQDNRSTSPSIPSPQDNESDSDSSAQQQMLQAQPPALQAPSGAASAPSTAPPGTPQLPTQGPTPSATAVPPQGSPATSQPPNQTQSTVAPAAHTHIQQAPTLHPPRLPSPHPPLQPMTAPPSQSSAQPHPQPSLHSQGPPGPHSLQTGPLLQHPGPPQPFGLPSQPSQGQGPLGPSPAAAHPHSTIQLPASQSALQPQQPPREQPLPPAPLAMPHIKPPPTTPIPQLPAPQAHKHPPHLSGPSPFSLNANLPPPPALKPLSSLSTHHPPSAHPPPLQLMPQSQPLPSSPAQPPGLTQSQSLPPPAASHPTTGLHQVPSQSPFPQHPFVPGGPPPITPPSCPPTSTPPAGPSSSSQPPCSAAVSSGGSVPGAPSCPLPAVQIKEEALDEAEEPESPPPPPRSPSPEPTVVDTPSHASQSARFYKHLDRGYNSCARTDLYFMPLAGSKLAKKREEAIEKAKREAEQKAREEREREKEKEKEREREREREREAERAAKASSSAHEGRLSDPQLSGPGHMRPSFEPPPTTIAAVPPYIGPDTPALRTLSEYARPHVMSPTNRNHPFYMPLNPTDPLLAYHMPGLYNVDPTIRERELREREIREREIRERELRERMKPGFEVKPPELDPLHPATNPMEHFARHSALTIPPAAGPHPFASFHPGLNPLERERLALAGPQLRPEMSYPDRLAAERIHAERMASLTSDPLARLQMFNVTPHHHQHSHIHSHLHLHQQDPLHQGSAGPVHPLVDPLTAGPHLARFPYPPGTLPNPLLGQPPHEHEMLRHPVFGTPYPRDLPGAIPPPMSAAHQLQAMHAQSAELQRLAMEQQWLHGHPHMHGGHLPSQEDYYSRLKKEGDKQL

No constants are given. Whether binding was seen depends on the method and setting. Binding seen in cells or lysates may run through a third protein. A yes stands for co-enrichment or nearness to the bait. Other partners may have been found.

In the assay the target is Rere-HA (UniProt Q80TZ9). As to the kind of experiment: affinity purification with mass spectrometry.
On to Ehmt2 (from UniProt Q9Z148 1-1263), for which the binding result is recorded as “binds”. Take Hdac1 (from UniProt O09106 1-482): the binding entry is recorded as “binds”. In the case of Hdac2 (from UniProt P70288 1-488), the binding entry is “binds”.
